In the supplement of paper PMC8728848:
The list shows a part of the results.

Assays:
Experiment in all cases: glycan array binding signal (z-score within array); higher = stronger binding
Conditions in all cases: glycan notation: IUPAC condensed, linker removed
Fuc(a1-2)Gal = target: Fuc(a1-2)Gal
Outline: (§1)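 The binding signal is a Z-score computed within each array and averaged over linkers. Arrays of the same protein sequence at different concentrations or buffers were also averaged together. Data originate from 3228 arrays in the Consortium for Functional Glycomics database, kept only where the protein sequence was available.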

Fuc(a1-2)Gal(b1-3)GalNAc = target: Fuc(a1-2)Gal(b1-3)GalNAc
Outline: as §1

[1] = target: Fuc(a1-2)Gal(b1-3)GalNAc(a1-3)[Fuc(a1-2)]Gal(b1-4)Glc
Outline: as §1

[2] = target: Fuc(a1-2)Gal(b1-3)GalNAc(a1-3)[Fuc(a1-2)]Gal(b1-4)GlcNAc
Outline: as §1

[3] = target: Fuc(a1-2)Gal(b1-3)GalNAc(b1-3)Gal
Outline: as §1

[4] = target: Fuc(a1-2)Gal(b1-3)GalNAc(b1-3)Gal(a1-4)Gal(b1-4)Glc
Outline: as §1

[5] = target: Fuc(a1-2)Gal(b1-3)GalNAc(b1-4)[Neu5Ac(a2-3)]Gal(b1-4)Glc
Outline: as §1

Fuc(a1-2)Gal(b1-3)GlcNAc = target: Fuc(a1-2)Gal(b1-3)GlcNAc
Outline: as §1

[6] = target: Fuc(a1-2)Gal(b1-3)GlcNAc(b1-2)Man(a1-3)[Fuc(a1-2)Gal(b1-3)GlcNAc(b1-2)Man(a1-6)]Man(b1-4)GlcNAc(b1-4)GlcNAc
Outline: as §1

[7] = target: Fuc(a1-2)Gal(b1-3)GlcNAc(b1-2)Man(a1-3)[Fuc(a1-2)Gal(b1-3)GlcNAc(b1-2)Man(a1-6)]Man(b1-4)GlcNAc(b1-4)[Fuc(a1-6)]GlcNAc
Outline: as §1

[8] = target: Fuc(a1-2)Gal(b1-3)GlcNAc(b1-3)Gal(b1-4)Glc
Outline: as §1

[9] = target: Fuc(a1-2)Gal(b1-3)GlcNAc(b1-3)GalNAc
Outline: as §1

[10] = target: Fuc(a1-2)Gal(b1-3)GlcNAc(b1-3)[Fuc(a1-2)Gal(b1-3)GlcNAc(b1-6)]GalNAc
Outline: as §1

[11] = target: Fuc(a1-2)Gal(b1-3)GlcNAc(b1-3)[Gal(b1-4)GlcNAc(b1-6)]Gal(b1-4)Glc
Outline: as §1

[12] = target: Fuc(a1-2)Gal(b1-3)GlcNAc(b1-3)[Neu5Ac(a2-6)Gal(b1-4)GlcNAc(b1-6)]Gal(b1-4)Glc
Outline: as §1

[13] = target: Fuc(a1-2)Gal(b1-3)GlcNAc6S
Outline: as §1

[14] = target: Fuc(a1-2)Gal(b1-3)[Fuc(a1-4)]GlcNAc
Outline: as §1

[15] = target: Fuc(a1-2)Gal(b1-3)[Fuc(a1-4)]GlcNAc(b1-2)Man(a1-3)[Fuc(a1-2)Gal(b1-3)[Fuc(a1-4)]GlcNAc(b1-2)Man(a1-3)]Man(b1-4)GlcNAc(b1-4)GlcNAc
Outline: as §1

[16] = target: Fuc(a1-2)Gal(b1-3)[Fuc(a1-4)]GlcNAc(b1-2)Man(a1-3)[Fuc(a1-2)Gal(b1-3)[Fuc(a1-4)]GlcNAc(b1-2)Man(a1-6)]Man(b1-4)GlcNAc(b1-4)[Fuc(a1-6)]GlcNAc(b1-4)[Fuc(a1-6)]GlcNAc
Outline: as §1

[17] = target: Fuc(a1-2)Gal(b1-3)[Fuc(a1-4)]GlcNAc(b1-3)[Fuc(a1-3)[Gal(b1-4)]GlcNAc(b1-6)]Gal(b1-4)Glc
Outline: as §1

[18] = target: Fuc(a1-2)Gal(b1-3)[Fuc(a1-4)]GlcNAc(b1-3)[Gal(b1-4)GlcNAc(b1-6)]Gal(b1-4)Glc
Outline: as §1

[19] = target: Fuc(a1-2)Gal(b1-4)Fuc(a1-3)]GlcNAc(b1-2)Man(a1-3)[Fuc(a1-2)Gal(b1-4)[Fuc(a1-3)]GlcNAc(b1-2)Man(a1-6)]Man(b1-4)GlcNAc(b1-4)GlcNAc
Outline: as §1

Fuc(a1-2)Gal(b1-4)Glc = target: Fuc(a1-2)Gal(b1-4)Glc
Outline: as §1

Fuc(a1-2)Gal(b1-4)Glc6S = target: Fuc(a1-2)Gal(b1-4)Glc6S
Outline: as §1

Fuc(a1-2)Gal(b1-4)GlcNAc = target: Fuc(a1-2)Gal(b1-4)GlcNAc
Outline: as §1

[20] = target: Fuc(a1-2)Gal(b1-4)GlcNAc(b1-2)Man
Outline: as §1

[21] = target: Fuc(a1-2)Gal(b1-4)GlcNAc(b1-2)Man(a1-3)[Fuc(a1-2)Gal(b1-4)GlcNAc(b1-2)Man(a1-6)]Man(b1-4)GlcNAc(b1-4)GlcNAc
Outline: as §1

[22] = target: Fuc(a1-2)Gal(b1-4)GlcNAc(b1-2)Man(a1-3)[Fuc(a1-2)Gal(b1-4)GlcNAc(b1-2)Man(a1-6)]Man(b1-4)GlcNAc(b1-4)[Fuc(a1-6)]GlcNAc
Outline: as §1

[23] = target: Fuc(a1-2)Gal(b1-4)GlcNAc(b1-2)[Fuc(a1-2)Gal(b1-4)GlcNAc(b1-4)]Man(a1-3)[Fuc(a1-2)Gal(b1-4)GlcNAc(b1-2)Man(a1-6)]Man(b1-4)GlcNAc(b1-4)GlcNAc
Outline: as §1

[24] = target: Fuc(a1-2)Gal(b1-4)GlcNAc(b1-3)Gal(b1-4)GlcNAc
Outline: as §1

B1: CcfD (Bacteroides fragilis), Q5L9G4 (protein)
chain: MKKQNSIYTLLIALLCFVSSCDYLGVSDQLAGGLQNTEQVFDNVSYTKRWYANVFAGIPDYSGINSVNVGAFKNPWTGMCDELVVGYGNSSKYNNSDRNAANMGFHRYGDCYKYIRQANIFLQKAHPIMTTGTQGDQLLEDELTQMKANVRFMRAFYHYLLFEQYGPIILVKDKIYNATEDQDVPRNTVDEVIEYIDSELTAVASELTQEPIFEDKDYRAWPTKGVALAVRAKLWLYAASPLLNGGYREALSVTNPDGTRLFPDYDAGKWEKALAACKDFIDYAEAGRYELYKEYKDDNGAVIDPDKSVYNLFQKYTHEIIWATANNDWGGMNGDAFDRRIAPRCEKNGLGSTGVTQELVDAFYMKDGFPVSATAYLPQSTLYQEEGYGTYKDQNDNFSKKYTNVTVSNRYLNREPRFYNTVFFNGRQWPVSCNQVLFYNGGNSGVQEGQATLTGYMLFKRFNRSVSLTNPGVASQFRPSIIFRLADFYLMYAEAANEVNPNDARVLKYLNLVRERAGLPDIETLNPAIRGNQELQRAAIQRERQIELATEGQRYFDVRRWMIADKNGEGRQNGYVHGMNVRGESNDKEDFNRIVEASQIVFNRKMYLYPMPDSEMRKTKNLVQNPGW
Fuc(a1-2)Gal
  glycan array binding signal (z-score): 0.811
Fuc(a1-2)Gal(b1-3)GalNAc
  glycan array binding signal (z-score): 0.663
[1]
  glycan array binding signal (z-score): -0.509
[2]
  glycan array binding signal (z-score): -0.969
[3]
  glycan array binding signal (z-score): -0.437
[4]
  glycan array binding signal (z-score): 0.286
[5]
  glycan array binding signal (z-score): -0.696
Fuc(a1-2)Gal(b1-3)GlcNAc
  glycan array binding signal (z-score): -0.161
[6]
  glycan array binding signal (z-score): 5.05
[7]
  glycan array binding signal (z-score): -0.338
[8]
  glycan array binding signal (z-score): -0.841
[9]
  glycan array binding signal (z-score): 0.213
[10]
  glycan array binding signal (z-score): -0.2
[11]
  glycan array binding signal (z-score): -0.095
[12]
  glycan array binding signal (z-score): -0.437
[13]
  glycan array binding signal (z-score): 0.391
[14]
  glycan array binding signal (z-score): 0.542
[15]
  glycan array binding signal (z-score): -0.417
[16]
  glycan array binding signal (z-score): 0.259
[17]
  glycan array binding signal (z-score): 0.194
[18]
  glycan array binding signal (z-score): -0.962
[19]
  glycan array binding signal (z-score): 0.956
Fuc(a1-2)Gal(b1-4)Glc
  glycan array binding signal (z-score): -0.502
Fuc(a1-2)Gal(b1-4)Glc6S
  glycan array binding signal (z-score): 0.318
Fuc(a1-2)Gal(b1-4)GlcNAc
  glycan array binding signal (z-score): 1.39
[20]
  glycan array binding signal (z-score): -0.128
[21]
  glycan array binding signal (z-score): -0.667
[22]
  glycan array binding signal (z-score): -0.805
[23]
  glycan array binding signal (z-score): 0.259
[24]
  glycan array binding signal (z-score): 0.43
